Assay results

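Uptake of anthrax lethal toxin into cultured cells, read by FRET (460/530 nm ratio) and reported from the 460 nm channel; the cell line is not named here. Each compound was tested as a concentration series from about 0.0005 to 40 µM. The number is the fitted AC50 of the 460 nm signal alone; lower values mean a more potent effect. A falling signal goes with compounds filed as inhibitors or cytotoxic, a rising one with activators or fluorescent compounds (inferred from the filed classes).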

Values are in µM. Common to all entries: measured here: 460 nm channel. Part of the compounds only, not a random draw; the main read-out is not listed here. A potency from a partial, single-point or poor curve is only a rough figure. The first word of each remark tells which way the curve ran; it can be opposite to the aim of the assay.

* N#Cc1nc(COc2cccc(Cl)c2)oc1N1CCCC1 | AC50 3.981 µM (falling, partial curve)
* COc1ccc(CNc2ccnc(-c3ccc4c(c3)OCO4)n2)c(OC)c1 | AC50 12.59 µM (falling, single point)
* CNc1nnc(-c2cccc(N(C)C)c2)s1 | AC50 5.012 µM (rising, single point)
* O=C(Nc1ccccc1)N1C(=O)C2(OCCO2)c2ccccc21 | AC50 0.631 µM (rising, full curve, poor fit)
* COc1ccc(NC(=O)N2CCC3(CC2)CCN(C(=O)c2cnccn2)CC3)cc1 | AC50 5.012 µM (rising, single point)
* COCC(=O)N1CCC[C@@]2(CCN(c3ccccc3)C2)C1 | AC50 12.59 µM (rising, single point)
* Cc1ccc(-c2nc3cc(N)ccc3o2)c(C)c1 | AC50 0.00631 µM (falling, full curve, poor fit)
* O=C(c1ccc(COc2ccccc2Cl)o1)N1CCN(Cc2ccc3c(c2)OCO3)CC1 | AC50 19.95 µM (falling, partial curve)
* CN1CCc2c(sc3c2C(=O)NC(c2cccs2)N3)C1 (stereo unspecified) | AC50 3.981 µM (falling, single point)
* CC12CCC(C(=O)N3CCN(Cc4ccccc4)CC3)(OC1=O)C2(C)C (stereo unspecified) | AC50 5.012 µM (rising, single point)
* Cn1nccc1C(=O)Nn1cnnc1 | AC50 0.7943 µM (rising, full curve, poor fit)
* N#Cc1ccccc1NC(=O)c1ccc(-c2ccccc2Cl)o1 | AC50 7.943 µM (falling, partial curve)
* O=C(O)c1cccn1Cc1ccccc1F | AC50 31.62 µM (falling, single point)
* COc1ccccc1N1CCN(C(c2cccs2)C(C)NS(=O)(=O)c2ccccc2)CC1 (stereo unspecified) | AC50 10 µM (falling, partial curve)
* Cc1cc(C)n(-c2ccc(C(=O)Nc3ccccc3N3CCOCC3)cc2)n1 | AC50 5.012 µM (rising, single point)
* COc1ccc(-c2noc(C3CCCN(S(=O)(=O)c4ccc(C)c(Cl)c4)C3)n2)cc1OC (stereo unspecified) | AC50 5.012 µM (rising, single point)
* CC(N)=NCc1cccc(CN)c1 | AC50 31.62 µM (falling, single point)
* CC1(C)C(=O)C2(CCCCC2)C(=O)OC1c1ccc(O)cc1 (stereo unspecified) | AC50 2.512 µM (rising, full curve, poor fit)
* Oc1ccc(Nc2nc(N3CCCC3)c3ccccc3n2)cc1 | AC50 12.59 µM (falling, partial curve)
* COC(=O)c1cc2sc(Cl)cc2n1CC(=O)Nc1cccc(SC)c1 | AC50 2.512 µM (falling, full curve, poor fit)
* COc1c(Cl)cc(-c2noc(C)c2C(=O)NCc2ccc3c(c2)OCO3)cc1Cl | AC50 6.31 µM (falling, partial curve)
* O=C(O)c1ccc2cccc(Cl)c2c1O | AC50 1 µM (falling, full curve)
* COc1ccc(Cn2nnc3c(=O)[nH]c(C(=O)NCCc4ccc(F)cc4)nc32)cc1OC | AC50 3.981 µM (rising, single point)
* O=C(CN1CCCC1)Nc1ccc(Oc2ccc(NC(=O)CN3CCCC3)cc2)cc1 | AC50 7.943 µM (falling, partial curve)
* COc1cccc(C2C(C(=O)c3cc4ccccc4o3)=C(O)C(=O)N2c2cc(C)on2)c1OC (stereo unspecified) | AC50 12.59 µM (rising, partial curve)
* O=C1Nc2cccnc2Sc2ccccc21 | AC50 6.31 µM (falling, partial curve)
* C[C@@H]1O[C@H]2C3=C(C(=O)[C@H]4O[C@@H]4[C@H]3O)[C@@H]1[C@@H]1[C@@H](C)OC=C3[C@H](O)[C@H]4O[C@@H]4/C(=N\OCc4ccccc4)[C@]312 | AC50 1.585 µM (rising, partial curve)
* CCNc1ncc2nc(-c3cn(C)c4ccccc34)c(=O)n(CCC#N)c2n1 | AC50 15.85 µM (rising, partial curve)
* COC(=O)c1[nH]c2ccccc2c1NC(=O)CN1CCCc2ccccc21 | AC50 6.31 µM (falling, partial curve, poor fit)
* CCN(CC)CCCN1C(=O)c2oc3ccccc3c(=O)c2C1c1cccnc1 (stereo unspecified) | AC50 1.259 µM (rising, partial curve)
* CCOc1cc(C(=O)Nc2cnccn2)cc(OCC)c1OCC | AC50 2.512 µM (rising, single point)
* O=C(c1ccco1)N1CCN(c2ncnc3c(-c4ccccc4)nsc23)CC1 | AC50 15.85 µM (rising, partial curve)
* Cc1cc(NCCCN2CCOCC2)n2ncc(-c3ccccc3)c2n1 | AC50 0.1259 µM (rising, full curve, poor fit)
* CC(=O)C1=C(C)NC(SCC(=O)c2ccc(Cl)c(Cl)c2)=C(C#N)C1c1ccco1 (stereo unspecified) | AC50 1.995 µM (falling, full curve)
* Cn1nnc2cc(NC(=O)N3CCN(c4ccccn4)CC3)ccc21 | AC50 0.01585 µM (falling, full curve, poor fit)
* CC1Cc2ccccc2N1C(=O)CSC1=NCCS1 (stereo unspecified) | AC50 25.12 µM (rising, single point)
* Cc1c(C)c2c(C)nn(-c3ccccc3)c2[nH]c1=O | AC50 1.995 µM (rising, partial curve)

Some entries from above, unchanged:

For COc1ccc(-c2noc(C3CCCN(S(=O)(=O)c4ccc(C)c(Cl)c4)C3)n2)cc1OC (stereo unspecified) the result was AC50 5.012 µM (rising, single point).
For O=C(c1ccc(COc2ccccc2Cl)o1)N1CCN(Cc2ccc3c(c2)OCO3)CC1 the result was AC50 19.95 µM (falling, partial curve).

Data taken from PubChem BioAssay AID912, deposited by NCATS (2007).